Reference: patent publication US20120046363A1, “DOCOSAHEXAENOIC ACID FOR THE TREATMENT OF HEART FAILURE” (University of Maryland, Baltimore, priority 2009, published 2012)

Assay: Body mass, organ mass and mitochondrial yield after dietary supplementation (Series 1)
Type: in vivo, male Wistar rats
Details: 8 weeks, mean ± SEM

In the case of `CC/C=C\C/C=C\C/C=C\C/C=C\C/C=C\CCCC(=O)O` [EPA, eicosapentanoic acid], the “Biatrial Mass” value (2.5% of caloric intake) is reported as 0.09 ± 0.02 g, the “LV Mass” value (2.5% of caloric intake) is reported as 0.89 ± 0.07 g and the “Liver Mass” value (2.5% of caloric intake) is reported as 15.5 ± 1.5 g. For the same compound, the “RV Mass” value (2.5% of caloric intake) was 0.29 ± 0.03 g and the “Terminal Body Mass” value (diet with DHA or EPA at 2.5% of total caloric intake) was 486 ± 29 g.
